Laboratory results taken from patent US11135246B2, “Peptides and combination of peptides for use in immunotherapy against leukemias and other cancers” (Immatics Biotechnologies GmbH, priority 2017, dated 2021).

Test system: HLA molecules of primary tumor samples
Test: Identification of tumor associated peptides presented on the cell surface (HLA immune precipitation, LC-MS)
Parameters: species or system human
Conditions: for Peptide Presentation on cancer entities: entities on which the peptide was presented, CLL = chronic lymphocytic leukemia, AML = acute myeloid leukemia, CML = Chronic myeloid leukemia; for Peptide Presentation on tumor types: tumor entities on which the peptide was found presented (Table 8b)

49 (GLLEEALFY; listed as Homo sapiens) [compound 49]
Peptide Presentation on cancer entities: AML | Peptide Presentation on tumor types: BRCA, CRC, GBC, GC, HCC, MEL, NSCLCadeno, NSCLCsquam, OSCAR, PACA, PRCA, RCC

50 (GVFNTLISY; listed as Homo sapiens) [compound 50]
Peptide Presentation on cancer entities: AML | Peptide Presentation on tumor types: MEL, PRCA

51 (ASTTVLALK; listed as Homo sapiens) [compound 51]
Peptide Presentation on cancer entities: CLL | Peptide Presentation on tumor types: NHL

52 (KAFNQSSTLTK; listed as Homo sapiens) [compound 52]
Peptide Presentation on cancer entities: CLL

53 (KYIEYYLVL; listed as Homo sapiens) [compound 53]
Peptide Presentation on cancer entities: CLL | Peptide Presentation on tumor types: GC, NSCLCadeno, NSCLCsquam, UEC

54 (QQALNFTRF; listed as Homo sapiens) [compound 54]
Peptide Presentation on cancer entities: CLL | Peptide Presentation on tumor types: GBC, MEL, NHL, NSCLCadeno, NSCLCsquam, OC, RCC, SCLC

55 (IFVARLYYF; listed as Homo sapiens) [compound 55]
Peptide Presentation on cancer entities: CLL | Peptide Presentation on tumor types: BRCA, CRC, GBC, GC, HCC, MEL, NHL, NSCLCadeno, NSCLCother, NSCLCsquam, OC, OSCAR, PACA, PRCA, RCC, SCLC, UBC, UEC

56 (KYSSGFRNI; listed as Homo sapiens) [compound 56]
Peptide Presentation on cancer entities: CLL | Peptide Presentation on tumor types: BRCA, CCC, CRC, GBC, GBM, GC, HCC, MEL, NHL, NSCLCadeno, NSCLCother, NSCLCsquam, OC, OSCAR, PACA, PRCA, RCC, SCLC, UEC

57 (RFPPTPPLF; listed as Homo sapiens) [compound 57]
Peptide Presentation on cancer entities: CLL | Peptide Presentation on tumor types: HNSCC, NHL, NSCLCsquam, OSCAR, UEC

58 (KYLADLPTL; listed as Homo sapiens) [compound 58]
Peptide Presentation on cancer entities: CLL | Peptide Presentation on tumor types: BRCA, CCC, CRC, GBC, GBM, GC, HCC, HNSCC, MEL, NHL, NSCLCadeno, NSCLCother, NSCLCsquam, OC, OSCAR, PRCA, RCC, SCLC, UEC

59 (GLYEGTGRLF; listed as Homo sapiens) [compound 59]
Peptide Presentation on cancer entities: AML

60 (TQDPHVNAFF; listed as Homo sapiens) [compound 60]
Peptide Presentation on cancer entities: CLL | Peptide Presentation on tumor types: BRCA, CRC, GBC, GEJC, HCC, HNSCC, NHL, NSCLCadeno, NSCLCother, NSCLCsquam, OC, OSCAR, PACA, PRCA, SCLC, UBC, UEC

61 (IFKEHNFSF; listed as Homo sapiens) [compound 61]
Peptide Presentation on cancer entities: AML

62 (YYLSHLERI; listed as Homo sapiens) [compound 62]
Peptide Presentation on cancer entities: AML | Peptide Presentation on tumor types: GBC, HNSCC, NSCLCadeno, NSCLCother, NSCLCsquam, UBC

63 (IYFSNTHFF; listed as Homo sapiens) [compound 63]
Peptide Presentation on cancer entities: AML

64 (SFQSKATVF; listed as Homo sapiens) [compound 64]
Peptide Presentation on cancer entities: AML

65 (AYLKQVLLF; listed as Homo sapiens) [compound 65]
Peptide Presentation on cancer entities: CLL | Peptide Presentation on tumor types: BRCA, CCC, CRC, GBC, GBM, GC, HCC, MEL, NHL, NSCLCadeno, NSCLCother, NSCLCsquam, OC, OSCAR, PACA, PRCA, RCC, SCLC, UBC, UEC

66 (SQPAVATSF; listed as Homo sapiens) [compound 66]
Peptide Presentation on cancer entities: AML | Peptide Presentation on tumor types: CRC, SCLC

67 (VFLPSEGFNF; listed as Homo sapiens) [compound 67]
Peptide Presentation on cancer entities: AML | Peptide Presentation on tumor types: MEL, NSCLCadeno, SCLC

68 (LYQDRFDYL; listed as Homo sapiens) [compound 68]
Peptide Presentation on cancer entities: AML | Peptide Presentation on tumor types: GC, MEL, NHL, NSCLCadeno, NSCLCother, NSCLCsquam, PRCA, SCLC, UEC

69 (EYNTIKDKF; listed as Homo sapiens) [compound 69]
Peptide Presentation on cancer entities: CLL | Peptide Presentation on tumor types: GBC, GC, HCC, MEL, NHL, NSCLCadeno, NSCLCother, NSCLCsquam, OSCAR, PACA, SCLC, UEC

70 (LYSDIGHLL; listed as Homo sapiens) [compound 70]
Peptide Presentation on cancer entities: CLL | Peptide Presentation on tumor types: CRC, GBC, GBM, GC, HCC, HNSCC, MEL, NHL, NSCLCadeno, NSCLCother, NSCLCsquam, OSCAR, PRCA, RCC, UBC, UEC

71 (RYLGKNWSF; listed as Homo sapiens) [compound 71]
Peptide Presentation on cancer entities: AML | Peptide Presentation on tumor types: GBC, OC, RCC

72 (TYVENLRLL; listed as Homo sapiens) [compound 72]
Peptide Presentation on cancer entities: CLL | Peptide Presentation on tumor types: BRCA, CCC, CRC, GBC, GBM, GC, HCC, HNSCC, MEL, NHL, NSCLCadeno, NSCLCother, NSCLCsquam, OC, OSCAR, PACA, PRCA, RCC, SCLC, UBC, UEC

73 (TYPQLEGFKF; listed as Homo sapiens) [compound 73]
Peptide Presentation on cancer entities: CLL | Peptide Presentation on tumor types: BRCA, CRC, GBC, GC, GEJC, HCC, MEL, NHL, NSCLCadeno, NSCLCother, NSCLCsquam, OC, OSCAR, PACA, PRCA, SCLC, UBC, UEC

74 (SYADNILSF; listed as Homo sapiens) [compound 74]
Peptide Presentation on cancer entities: CLL | Peptide Presentation on tumor types: BRCA, CRC, GBC, GBM, GC, HCC, HNSCC, MEL, NHL, NSCLCadeno, NSCLCother, NSCLCsquam, OC, OSCAR, PACA, PRCA, RCC, SCLC, UBC, UEC

75 (RFYLLTEHF; listed as Homo sapiens) [compound 75]
Peptide Presentation on cancer entities: AML | Peptide Presentation on tumor types: CRC, GBC, HCC, NHL, NSCLCadeno, NSCLCsquam, OSCAR, SCLC

76 (KAFSWSSAF; listed as Homo sapiens) [compound 76]
Peptide Presentation on cancer entities: CLL | Peptide Presentation on tumor types: BRCA, GBM, NHL, NSCLCsquam, PRCA, SCLC, UBC

77 (RPNGNSLFTSA; listed as Homo sapiens) [compound 77]
Peptide Presentation on cancer entities: CLL | Peptide Presentation on tumor types: HCC, MEL, NHL, PRCA, SCLC, UEC

78 (RPRGLALVL; listed as Homo sapiens) [compound 78]
Peptide Presentation on cancer entities: AML, CML | Peptide Presentation on tumor types: BRCA, CCC, CRC, GBC, GBM, GC, HCC, HNSCC, MEL, NHL, NSCLCadeno, NSCLCother, NSCLCsquam, OC, OSCAR, PACA, PRCA, RCC, SCLC, UBC, UEC

79 (SPVPSHWMVA; listed as Homo sapiens) [compound 79]
Peptide Presentation on cancer entities: CLL | Peptide Presentation on tumor types: CCC, MEL, NHL, PRCA, SCLC, UBC

80 (KPLFKVSTF; listed as Homo sapiens) [compound 80]
Peptide Presentation on cancer entities: CLL | Peptide Presentation on tumor types: NHL, NSCLCadeno, NSCLCother, NSCLCsquam, OC, OSCAR, RCC, UEC

81 (SESPWLHAPSL; listed as Homo sapiens) [compound 81]
Peptide Presentation on cancer entities: CLL

82 (APFGFLGMQSL; listed as Homo sapiens) [compound 82]
Peptide Presentation on cancer entities: CLL

83 (IPVSRPIL; listed as Homo sapiens) [compound 83]
Peptide Presentation on cancer entities: CLL

84 (SPKLQIAAM; listed as Homo sapiens) [compound 84]
Peptide Presentation on cancer entities: CLL | Peptide Presentation on tumor types: NHL, OC

85 (IPVSHPVL; listed as Homo sapiens) [compound 85]
Peptide Presentation on cancer entities: CLL | Peptide Presentation on tumor types: NHL

86 (IPASHPVL; listed as Homo sapiens) [compound 86]
Peptide Presentation on cancer entities: CLL | Peptide Presentation on tumor types: GBC, MEL, NHL, NSCLCsquam, OSCAR, PACA, SCLC

87 (FPAPILRAV; listed as Homo sapiens) [compound 87]
Peptide Presentation on cancer entities: CLL | Peptide Presentation on tumor types: GBC, GC, MEL, NHL, NSCLCother, UBC

88 (MPDPHLYHQM; listed as Homo sapiens) [compound 88]
Peptide Presentation on cancer entities: CLL | Peptide Presentation on tumor types: MEL, NHL, NSCLCsquam

89 (FPETVNNLL; listed as Homo sapiens) [compound 89]
Peptide Presentation on cancer entities: CLL | Peptide Presentation on tumor types: NSCLCadeno, NSCLCother, NSCLCsquam, PACA

90 (KPKAAKPKA; listed as Homo sapiens) [compound 90]
Peptide Presentation on cancer entities: CLL

91 (KPKAAKPKAA; listed as Homo sapiens) [compound 91]
Peptide Presentation on cancer entities: CLL

92 (KAKKPAGAA; listed as Homo sapiens) [compound 92]
Peptide Presentation on cancer entities: CLL

93 (KARKSAGAA; listed as Homo sapiens) [compound 93]
Peptide Presentation on cancer entities: CLL

94 (KPKAAKPKKAAA; listed as Homo sapiens) [compound 94]
Peptide Presentation on cancer entities: CLL

95 (KPKAAKPKTA; listed as Homo sapiens) [compound 95]
Peptide Presentation on cancer entities: CLL

96 (KPKKAPKSPA; listed as Homo sapiens) [compound 96]
Peptide Presentation on cancer entities: CLL

97 (LPFGKIPIL; listed as Homo sapiens) [compound 97]
Peptide Presentation on cancer entities: AML, CML | Peptide Presentation on tumor types: BRCA, CRC, GBC, GBM, GC, HCC, HNSCC, MEL, NHL, NSCLCadeno, NSCLCother, NSCLCsquam, OC, OSCAR, PACA, PRCA, RCC, SCLC, UBC, UEC
